No constants are given. Whether binding was seen depends on the method and setting. In cells and extracts the contact can be indirect. Binding calls can cover weak binding; strength is not graded here.
Biological target: T1, PHLPP2 (endogenous) (human (endogenous in HepG2)) (UniProt Q6ZVD8)
T1 sequence: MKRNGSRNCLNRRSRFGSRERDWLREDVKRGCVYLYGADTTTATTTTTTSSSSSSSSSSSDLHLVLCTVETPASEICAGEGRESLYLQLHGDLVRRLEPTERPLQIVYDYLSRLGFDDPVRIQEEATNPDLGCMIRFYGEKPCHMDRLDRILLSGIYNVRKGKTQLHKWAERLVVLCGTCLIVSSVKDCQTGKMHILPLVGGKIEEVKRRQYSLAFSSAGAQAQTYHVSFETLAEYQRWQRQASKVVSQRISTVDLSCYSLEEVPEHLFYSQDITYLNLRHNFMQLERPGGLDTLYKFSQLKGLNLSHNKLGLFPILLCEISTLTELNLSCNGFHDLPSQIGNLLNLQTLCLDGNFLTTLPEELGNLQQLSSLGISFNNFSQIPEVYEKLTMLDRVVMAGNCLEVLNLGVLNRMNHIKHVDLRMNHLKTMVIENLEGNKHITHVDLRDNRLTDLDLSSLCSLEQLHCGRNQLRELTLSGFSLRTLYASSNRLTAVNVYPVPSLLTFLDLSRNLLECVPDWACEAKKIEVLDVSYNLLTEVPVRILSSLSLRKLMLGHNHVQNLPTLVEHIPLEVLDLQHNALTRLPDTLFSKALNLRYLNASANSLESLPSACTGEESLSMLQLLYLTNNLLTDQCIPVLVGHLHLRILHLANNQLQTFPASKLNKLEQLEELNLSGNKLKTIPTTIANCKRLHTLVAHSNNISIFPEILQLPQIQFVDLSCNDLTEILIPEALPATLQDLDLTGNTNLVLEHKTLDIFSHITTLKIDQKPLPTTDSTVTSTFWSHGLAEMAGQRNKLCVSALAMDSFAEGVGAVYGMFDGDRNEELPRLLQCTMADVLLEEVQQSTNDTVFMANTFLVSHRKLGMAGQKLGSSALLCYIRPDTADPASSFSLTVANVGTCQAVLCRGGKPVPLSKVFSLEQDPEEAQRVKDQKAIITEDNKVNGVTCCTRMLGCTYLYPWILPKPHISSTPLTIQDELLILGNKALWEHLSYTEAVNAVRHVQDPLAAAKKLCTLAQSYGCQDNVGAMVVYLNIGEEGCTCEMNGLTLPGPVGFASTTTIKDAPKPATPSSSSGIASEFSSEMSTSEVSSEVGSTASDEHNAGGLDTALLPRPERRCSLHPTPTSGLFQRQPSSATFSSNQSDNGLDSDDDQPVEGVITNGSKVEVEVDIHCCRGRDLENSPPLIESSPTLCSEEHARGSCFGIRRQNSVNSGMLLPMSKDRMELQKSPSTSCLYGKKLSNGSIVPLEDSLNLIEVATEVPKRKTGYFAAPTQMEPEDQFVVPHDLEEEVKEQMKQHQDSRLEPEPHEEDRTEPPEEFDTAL
Test: co-IP; HepG2 cells transfected with Myc-tagged TRIM22 Wt or Muts (ΔRING, ΔBBox, ΔCC, ΔSPRY); IP (antibody not told) and Western blot

Row | Substance | binding
1 | TRIM22 ΔBBox (Myc-tagged) (domain or fragment) | binds
2 | TRIM22 ΔCC (Myc-tagged) (domain or fragment) | binds
3 | TRIM22 ΔRING (Myc-tagged) (domain or fragment) | binds

From paper PMC10781680
